Results are given in words; binding and its absence hold for the method and conditions named. For some assays here: Binding seen in cells or lysates may run through a third protein. Some binding calls cover weakened binding; strength is not graded here.
Key:
[1] = molecular target: talin clones isolated in the yeast two-hybrid screen (Homo sapiens (Human)) (UniProt Q9Y490); test: yeast two-hybrid screen
[2] = molecular target: GST-talin head (human talin1 head region 1-435) (human) (UniProt Q9Y490); test: GST pull-down with recombinant proteins
[3] = molecular target: GST-talin head (human talin1 head region 1-435) (human) (UniProt Q9Y490); test: GST pull-down competition; competitor His-β1-integrin tail
[4] = molecular target: GST-talin head Lys^357->Gln mutant (human) (UniProt Q9Y490); test: GST pull-down
[5] = molecular target: GST-talin head Arg^358->Gln mutant (human) (UniProt Q9Y490); test: GST pull-down
[6] = molecular target: talin (Homo sapiens (Human)) (UniProt Q9Y490); test: co-immunoprecipitation of c-Myc-tagged chimeras
[7] = molecular target: talin (Homo sapiens (Human)) (UniProt Q9Y490); test: co-immunoprecipitation with talin, compared with wild-type PIPKIγ661

Protein sequences, listed by entry. Tags and fused reporters are not part of them. Lines headed by an entry give the natural chain unless they say otherwise; changes in a name come on top.
UniProt Q9Y490: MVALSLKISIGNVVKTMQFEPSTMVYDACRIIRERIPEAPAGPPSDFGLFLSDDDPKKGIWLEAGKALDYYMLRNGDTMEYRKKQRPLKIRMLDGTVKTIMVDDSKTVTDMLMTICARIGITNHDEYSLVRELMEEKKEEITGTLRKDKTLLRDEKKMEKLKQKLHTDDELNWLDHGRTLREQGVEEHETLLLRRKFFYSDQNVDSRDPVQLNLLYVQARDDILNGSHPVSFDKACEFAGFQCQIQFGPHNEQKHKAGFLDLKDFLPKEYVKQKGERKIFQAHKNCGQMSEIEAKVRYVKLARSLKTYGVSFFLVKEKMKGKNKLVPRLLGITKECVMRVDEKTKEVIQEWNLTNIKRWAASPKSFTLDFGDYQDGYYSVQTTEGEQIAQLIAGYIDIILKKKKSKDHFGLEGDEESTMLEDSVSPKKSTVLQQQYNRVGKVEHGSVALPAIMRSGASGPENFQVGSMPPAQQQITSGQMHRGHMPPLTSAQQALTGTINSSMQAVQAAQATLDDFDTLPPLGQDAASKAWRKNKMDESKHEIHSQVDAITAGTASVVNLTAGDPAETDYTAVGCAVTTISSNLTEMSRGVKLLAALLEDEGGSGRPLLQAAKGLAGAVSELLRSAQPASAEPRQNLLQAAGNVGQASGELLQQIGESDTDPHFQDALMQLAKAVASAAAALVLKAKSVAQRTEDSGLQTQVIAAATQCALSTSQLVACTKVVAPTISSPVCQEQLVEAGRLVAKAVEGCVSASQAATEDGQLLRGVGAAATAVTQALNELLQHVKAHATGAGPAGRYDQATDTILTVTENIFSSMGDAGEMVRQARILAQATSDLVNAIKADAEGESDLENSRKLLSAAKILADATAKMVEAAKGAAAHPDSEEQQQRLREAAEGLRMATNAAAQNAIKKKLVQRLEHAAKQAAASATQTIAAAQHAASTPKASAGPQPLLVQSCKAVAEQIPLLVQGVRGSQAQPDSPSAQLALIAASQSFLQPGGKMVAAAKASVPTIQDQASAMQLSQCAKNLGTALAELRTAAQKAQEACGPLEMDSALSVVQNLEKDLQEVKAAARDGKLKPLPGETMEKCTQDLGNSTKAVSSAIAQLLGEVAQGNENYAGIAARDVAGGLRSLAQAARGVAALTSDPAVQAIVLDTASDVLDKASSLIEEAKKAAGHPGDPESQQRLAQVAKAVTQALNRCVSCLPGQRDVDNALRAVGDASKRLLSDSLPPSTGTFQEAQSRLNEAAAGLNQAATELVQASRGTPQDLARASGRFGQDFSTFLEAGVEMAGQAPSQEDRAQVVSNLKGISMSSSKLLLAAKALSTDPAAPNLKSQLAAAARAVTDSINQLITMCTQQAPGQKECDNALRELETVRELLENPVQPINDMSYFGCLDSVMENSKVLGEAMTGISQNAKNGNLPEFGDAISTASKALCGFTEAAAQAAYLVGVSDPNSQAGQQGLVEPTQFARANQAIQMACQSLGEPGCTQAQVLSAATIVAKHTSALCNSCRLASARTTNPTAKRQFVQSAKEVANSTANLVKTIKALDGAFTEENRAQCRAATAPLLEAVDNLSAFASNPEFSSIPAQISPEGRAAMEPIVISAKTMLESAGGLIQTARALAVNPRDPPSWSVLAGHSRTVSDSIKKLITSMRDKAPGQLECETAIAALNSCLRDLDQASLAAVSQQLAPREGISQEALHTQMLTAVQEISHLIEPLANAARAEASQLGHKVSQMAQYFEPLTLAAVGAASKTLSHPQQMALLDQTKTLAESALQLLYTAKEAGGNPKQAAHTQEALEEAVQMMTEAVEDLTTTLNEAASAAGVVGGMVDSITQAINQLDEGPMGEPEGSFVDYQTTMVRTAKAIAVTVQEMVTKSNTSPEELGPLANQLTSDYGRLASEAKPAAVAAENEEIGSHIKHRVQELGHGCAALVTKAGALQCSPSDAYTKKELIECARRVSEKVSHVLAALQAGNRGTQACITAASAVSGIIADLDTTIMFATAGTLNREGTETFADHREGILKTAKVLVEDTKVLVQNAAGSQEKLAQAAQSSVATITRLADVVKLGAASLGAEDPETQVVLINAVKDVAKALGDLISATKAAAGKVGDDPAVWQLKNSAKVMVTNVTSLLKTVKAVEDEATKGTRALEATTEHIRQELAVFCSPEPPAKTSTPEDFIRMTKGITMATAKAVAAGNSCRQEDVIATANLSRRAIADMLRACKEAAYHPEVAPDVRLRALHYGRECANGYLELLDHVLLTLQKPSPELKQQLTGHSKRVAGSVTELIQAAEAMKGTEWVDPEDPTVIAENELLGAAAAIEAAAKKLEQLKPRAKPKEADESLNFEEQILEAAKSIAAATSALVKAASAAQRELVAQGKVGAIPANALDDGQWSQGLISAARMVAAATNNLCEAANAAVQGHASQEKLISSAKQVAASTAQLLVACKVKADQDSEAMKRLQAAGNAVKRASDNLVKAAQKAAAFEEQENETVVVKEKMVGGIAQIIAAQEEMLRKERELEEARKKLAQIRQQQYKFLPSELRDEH
UniProt O70161: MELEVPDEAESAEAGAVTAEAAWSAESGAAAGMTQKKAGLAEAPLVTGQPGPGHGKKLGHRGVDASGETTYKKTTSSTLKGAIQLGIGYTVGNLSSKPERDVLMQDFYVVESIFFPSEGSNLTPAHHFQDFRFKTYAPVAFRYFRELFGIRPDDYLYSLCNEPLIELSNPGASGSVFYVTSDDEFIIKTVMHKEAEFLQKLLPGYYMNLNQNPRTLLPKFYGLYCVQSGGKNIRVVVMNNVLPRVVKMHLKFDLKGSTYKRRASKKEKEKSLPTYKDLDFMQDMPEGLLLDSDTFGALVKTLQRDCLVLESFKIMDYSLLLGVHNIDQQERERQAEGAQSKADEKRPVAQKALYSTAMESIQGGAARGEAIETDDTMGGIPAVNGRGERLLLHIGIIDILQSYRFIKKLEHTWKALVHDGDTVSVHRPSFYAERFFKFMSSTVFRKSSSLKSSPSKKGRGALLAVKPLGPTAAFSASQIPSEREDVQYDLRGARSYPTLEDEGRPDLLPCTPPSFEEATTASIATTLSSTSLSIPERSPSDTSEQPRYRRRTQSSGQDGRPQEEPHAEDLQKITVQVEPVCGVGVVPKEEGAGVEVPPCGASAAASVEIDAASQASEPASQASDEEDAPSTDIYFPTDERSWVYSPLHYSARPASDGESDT

Substance: 178-residue C-terminal region of PIPKIγ661 (yeast two-hybrid bait) (from UniProt O70161 484-661)
- binding [1]: binds

Substance: His-PIPKIγ661 C-terminus (439-661) Tyr644 to Phe mutant (from UniProt O70161 439-661)
- binding [2]: binds

Substance: His-PIPKIγ661 C-terminus (439-661) Tyr644/649 to Phe mutant (from UniProt O70161 439-661)
- binding [2]: binds

Substance: His-PIPKIγ661 C-terminus (439-661) Tyr649 to Phe mutant (from UniProt O70161 439-661)
- binding [2]: binds

Substance: His-PIPKIγ661 C-terminus, wild-type (439-661) (from UniProt O70161 439-661)
- binding [3]: binds
- binding [2]: binds
- binding [4]: binds
- binding [5]: binds

Substance: PIPKIα/γ26 chimera (c-Myc-tagged) (from UniProt Q99755 1-562) (enzyme)
- binding [6]: binds

Substance: PIPKIγ-E (from UniProt O70161 1-658) (enzyme)
- binding [7]: binds

Substance: PIPKIγTyr^649->Phe (from UniProt O70161 1-661) (enzyme)
- binding [7]: binds

From patent US20040265295A1
